PubChem BioAssay AID720505 – Drosophila RNAi Screening Center, 2013
The deposit covers about 20,000 reagents; this is an unselected part of those with a known target gene and a result. Of all reagents, about 2,100 (10%) are marked active. 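Raw plate signals without normalisation; calls rest on control-based scores that were not deposited; replicate 2 separates called from uncalled poorly.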 Names joined by + are all predicted targets of the reagent. No sequences are given here. The record does not give: the amount of reagent, the time to read-out.

Screen: 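Fly regulators or components of the CRAC channel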 (primary screen)
Cells: Drosophila S2R+ cells
Reagents: long dsRNA against Drosophila genes
Treatment: thapsigargin (2 µM) in calcium-free buffer to empty internal stores, then 2 mM calcium added back
Measured: 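Fluo-4 signal in 384-well plates read on a FLIPR after thapsigargin (2 µM, calcium-free) store depletion and 2 mM calcium add-back; unnormalised mean endpoint per well; screen run twice, selected wells retested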
Reading the numbers: calcium signal and retest calcium signal: higher = more calcium entry after store depletion
Rule for the call: 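About 1500 genes called as lowering calcium entry, by varying amounts, judged against per-plate control wells with STIM1 as positive and Rho1 as negative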
Meaning of the calls: active = called as lowering calcium entry; inactive = not called

{"gene knocked down":"CG6576","DRSC id":"DRSC10663","calcium signal, replicate 1":118,"calcium signal, replicate 2":101,"Call":"inactive"}
{"gene knocked down":"lds","DRSC id":"DRSC16988","calcium signal, replicate 1":120,"calcium signal, replicate 2":170,"Call":"inactive"}
{"gene knocked down":"Rab21","DRSC id":"DRSC20968","calcium signal, replicate 1":69.4,"calcium signal, replicate 2":210,"Call":"active"}
{"gene knocked down":"Gr64d + Gr64e","DRSC id":"DRSC08446","calcium signal, replicate 1":95,"calcium signal, replicate 2":81.5,"retest calcium signal, replicate 1":86.3,"retest calcium signal, replicate 2":84.9,"Call":"inactive"}
{"gene knocked down":"Ogg1","DRSC id":"DRSC17738","calcium signal, replicate 1":158,"calcium signal, replicate 2":96.7,"Call":"inactive"}
{"gene knocked down":"NimB4","DRSC id":"DRSC01884","calcium signal, replicate 1":90,"calcium signal, replicate 2":134,"Call":"inactive"}
{"gene knocked down":"CG3769","DRSC id":"DRSC02723","calcium signal, replicate 1":172,"calcium signal, replicate 2":188,"Call":"inactive"}
{"gene knocked down":"Ublcp1","DRSC id":"DRSC14149","calcium signal, replicate 1":172,"calcium signal, replicate 2":321,"Call":"inactive"}
{"gene knocked down":"CG3032","DRSC id":"DRSC18266","calcium signal, replicate 1":235,"calcium signal, replicate 2":112,"Call":"inactive"}
{"gene knocked down":"CG10680","DRSC id":"DRSC02093","calcium signal, replicate 1":102,"calcium signal, replicate 2":95,"Call":"inactive"}
{"gene knocked down":"Uch","DRSC id":"DRSC00797","calcium signal, replicate 1":38.8,"calcium signal, replicate 2":94.4,"Call":"active"}
{"gene knocked down":"CG31823","DRSC id":"DRSC01887","calcium signal, replicate 1":135,"calcium signal, replicate 2":138,"Call":"inactive"}
{"gene knocked down":"CG14855","DRSC id":"DRSC14979","calcium signal, replicate 1":121,"calcium signal, replicate 2":163,"Call":"inactive"}
{"gene knocked down":"fend","DRSC id":"DRSC17867","calcium signal, replicate 1":67.6,"calcium signal, replicate 2":86.2,"Call":"inactive"}
{"gene knocked down":"Ac13E","DRSC id":"DRSC19325","calcium signal, replicate 1":74.6,"calcium signal, replicate 2":104,"Call":"inactive"}
{"gene knocked down":"CG14052","DRSC id":"DRSC17907","calcium signal, replicate 1":55.8,"calcium signal, replicate 2":125,"Call":"active"}
{"gene knocked down":"CG14052","DRSC id":"DRSC18192","calcium signal, replicate 1":133,"calcium signal, replicate 2":149,"Call":"inactive"}
{"gene knocked down":"sunz","DRSC id":"DRSC12559","calcium signal, replicate 1":121,"calcium signal, replicate 2":149,"Call":"inactive"}
{"gene knocked down":"Idgf1","DRSC id":"DRSC03349","calcium signal, replicate 1":86.3,"calcium signal, replicate 2":111,"Call":"inactive"}
{"gene knocked down":"sha","DRSC id":"DRSC06331","calcium signal, replicate 1":157,"calcium signal, replicate 2":174,"Call":"inactive"}
{"gene knocked down":"S1P","DRSC id":"DRSC11810","calcium signal, replicate 1":114,"calcium signal, replicate 2":204,"Call":"inactive"}
{"gene knocked down":"Cyp6a18","DRSC id":"DRSC16632","calcium signal, replicate 1":186,"calcium signal, replicate 2":139,"Call":"inactive"}
{"gene knocked down":"CG6805","DRSC id":"DRSC07011","calcium signal, replicate 1":35.4,"calcium signal, replicate 2":84,"Call":"active"}
{"gene knocked down":"CG30156","DRSC id":"DRSC04959","calcium signal, replicate 1":73.9,"calcium signal, replicate 2":91.5,"Call":"active"}
{"gene knocked down":"CG10859","DRSC id":"DRSC02110","calcium signal, replicate 1":78.7,"calcium signal, replicate 2":96.6,"Call":"inactive"}
{"gene knocked down":"RpL15","DRSC id":"DRSC20963","calcium signal, replicate 1":69.4,"calcium signal, replicate 2":125,"Call":"active"}
{"gene knocked down":"Neurl4","DRSC id":"DRSC10638","calcium signal, replicate 1":107,"calcium signal, replicate 2":126,"Call":"inactive"}
{"gene knocked down":"CG33159","DRSC id":"DRSC08199","calcium signal, replicate 1":104,"calcium signal, replicate 2":111,"Call":"inactive"}
{"gene knocked down":"CG13426","DRSC id":"DRSC06388","calcium signal, replicate 1":148,"calcium signal, replicate 2":154,"Call":"inactive"}
{"gene knocked down":"CG6126","DRSC id":"DRSC15971","calcium signal, replicate 1":180,"calcium signal, replicate 2":189,"Call":"inactive"}
{"gene knocked down":"rump","DRSC id":"DRSC16480","calcium signal, replicate 1":97.2,"calcium signal, replicate 2":158,"Call":"inactive"}
{"gene knocked down":"CycB","DRSC id":"DRSC04605","calcium signal, replicate 1":66.5,"calcium signal, replicate 2":189,"Call":"active"}
{"gene knocked down":"CG31275","DRSC id":"DRSC16919","calcium signal, replicate 1":127,"calcium signal, replicate 2":78.2,"Call":"inactive"}
{"gene knocked down":"CG42564","DRSC id":"DRSC12518","calcium signal, replicate 1":124,"calcium signal, replicate 2":145,"Call":"inactive"}
{"gene knocked down":"CG32237","DRSC id":"DRSC08312","calcium signal, replicate 1":87.7,"calcium signal, replicate 2":59.3,"Call":"inactive"}
{"gene knocked down":"CG32237","DRSC id":"DRSC08315","calcium signal, replicate 1":103,"calcium signal, replicate 2":90.6,"Call":"inactive"}

Part of the list above in another layout.
CG31823 [DRSC01887]
- calcium signal, replicate 1: 135
- calcium signal, replicate 2: 138
- Call: inactive

CG14855 [DRSC14979]
- calcium signal, replicate 1: 121
- calcium signal, replicate 2: 163
- Call: inactive

fend [DRSC17867]
- calcium signal, replicate 1: 67.6
- calcium signal, replicate 2: 86.2
- Call: inactive
